In all, about 320,000 compounds went through this assay and about 22,000 (6.9%) were called active. Inconclusive results, whose numbers are uncertain, are shown with a selection of clear calls. Calls follow the shape of the dose curve; as a rule, active = well fitted inhibition curve with a large enough effect; inconclusive = small, poorly fitted or top-dose-only effect, or another doubt; inactive = no such curve, though single readings can be large or run the other way. Where the call is inconclusive, the potency comes from a doubtful curve fit.
Assay: Primary qHTS for delayed death inhibitors of the malarial parasite plastid, 96 hour incubation
Conditions: P. falciparum luciferase reporter growth; series mostly up to 28.7 µM
In short: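 Compounds incubated with erythrocytes infected by luciferase-expressing P. falciparum (2% hematocrit, 0.05% parasitemia final) for 96 hours, 37 C in 5% CO2. Growth inhibition scored as decreased luciferase luminescence.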
% is scaled to controls: 0 for no effect and ±100 for the full control effect; potency is read from the fitted curve at half-maximal effect.

SMILES | Potency | activity change, negative = inhibition
Cc1cc(C)cc(N/C(N)=N/c2nc(C)cc(C)n2)c1 | active: 4.15 µM | 
COc1ccc(OC)c(N=Cc2c(O)c3ccccc3oc2=O)c1 | inactive | 
N/N=c1\sc2ccccc2n1-c1ccccc1 | inactive | 
COc1ccc(Cn2c(SCc3ccc(C)cc3)nc3cc(OC)c(OC)cc3c2=N)cc1Cl | active: 2.33 µM | 
CN(CC(=O)NC(=O)NC(C)(C)C)CC(=O)Nc1ccccc1Cl | inconclusive: 18.5 µM [inhibitor, partial curve, poor fit] | 
CCn1cc(C(=O)OCC(=O)c2cc(C)n(-c3ccc(OC(F)F)cc3)c2C)c(=O)c2ccc(C)nc21 | inconclusive: 18.5 µM [inhibitor, single point] | 
O=C(CC(c1cccs1)S(=O)(=O)c1ccccc1)c1ccc(F)cc1 (stereo not given) | inactive | 
O=C(Nc1ccccc1C(=O)NC(Cc1ccccc1)C(=O)O)c1ccccc1 (stereo not given) | inconclusive: 18.5 µM [inhibitor, single point] | 
CSc1ccc(/C=N/NC(=O)c2ccc(C)c(C)c2)cc1 | inactive | 
O=S(=O)(c1cnc(Cl)c(Cl)c1)N1CCc2ccccc21 | inconclusive: 0.329 µM [inhibitor, full curve] | 
COc1ccc(CCNC(=O)CN(CCc2ccccc2)S(C)(=O)=O)cc1OC |  | inactive: 3.51% [at 5.75 µM]
O=c1cc(-c2ccccc2)nc2nc[nH]n12 | active: 0.294 µM | 
O=C(/C=C/c1ccc(OCc2cccc(Cl)c2)cc1)N1CCOCC1 | inconclusive: 16.5 µM [inhibitor, single point] | 
COc1cc(OC)c2c(OC)cccc2n1 | inactive | 
COc1ccc([C@H]2CC(=O)C=C(c3cc(F)ccc3OC)C2)cc1 | inconclusive: 2.62 µM [inhibitor, partial curve, poor fit] | 
CCC(O)C1CCN(Cc2cn(-c3ccc(OC)cc3)nc2-c2cccc(F)c2)CC1 (stereo not given) | inconclusive: 9.28 µM [inhibitor, single point] | 
CCOC(=O)c1sc2nc(C)nc(SCC(=O)N(CC)C3CCS(=O)(=O)C3)c2c1C (stereo not given) | inconclusive: 4.15 µM [inhibitor, single point] | 
O=C(CSc1nc2ccccc2[nH]1)NCc1ccc(F)cc1 | inactive | 
CCN(CC)CCn1c(=N)n(CC(O)c2ccco2)c2ccccc21 (stereo not given) | inconclusive: 0.0033 µM [inhibitor, full curve, poor fit] | 
CC(=O)c1c(C)[nH]c(C(=O)COC(=O)c2cccc(S(=O)(=O)N(C)c3ccccc3)c2)c1C | inconclusive: 14.7 µM [inhibitor, single point] | 
Cc1nn(-c2ccccc2)c(Cl)c1/C=C1\C(=O)N(C)C(=S)N1C | active: 13.1 µM | 
CCN1C(=O)[C@H]2[C@@H](c3ccc(-c4ccccc4)cc3)N[C@@](CC(C)C)(C(=O)OC)[C@H]2C1=O | active: 9.28 µM | 
Cc1cccc(CC2CC(=O)N(c3ccc([N+](=O)[O-])cc3)C2=O)c1 (stereo not given) | inconclusive: 1.85 µM [inhibitor, partial curve, poor fit] | 
CCOc1ccc(S(=O)(=O)N2CCN(C(=O)C3CSC4(C)CCC(=O)N34)CC2)cc1 (stereo not given) | inconclusive: 10.4 µM [inhibitor, partial curve, poor fit] | 

SMILES | Potency | activity change, negative = inhibition
CCOc1cc(CNCCSc2nnnn2C)cc(Br)c1OCc1ccccc1F | active: 8.28 µM | 
O=C(Nc1ccc(-c2n[nH]c(=S)o2)cc1)c1ccccc1Br | inconclusive: 14.7 µM [inhibitor, partial curve] | 
CCN=C1S/C(=C\c2ccc(Sc3ccc(Cl)cc3)o2)C(=O)N1CC | inactive | 
CCN(CC)c1ccc2cc(C(C)=O)c(=O)oc2c1 | inactive | 
Cc1cc2ncn(/N=C/c3cccnc3)c2cc1C | inconclusive: 8.28 µM [inhibitor, single point] | 
CSc1nc(C)c(CCOC(=O)c2cccc(C)c2)c(=O)[nH]1 | inconclusive: 18.5 µM [inhibitor, single point] | 
C=CCn1c(Cc2c[nH]c3ccccc23)nnc1SCC(=O)NCc1ccccc1 | inconclusive: 18.5 µM [inhibitor, single point] | 
COc1cccc(/C=C/C2=CC(C)(C)NC(=S)N2)c1 | inconclusive: 18.5 µM [inhibitor, single point] | 
CCOC(=O)C1CCN(C(=O)CN(C)S(=O)(=O)c2ccc3c(c2)c(=O)n(C)c(=O)n3C)CC1 | inactive | 
CCCCNC(=S)Nc1cccc(S(=O)(=O)NC2=NCCC2)c1 | inactive | 
Cc1ccc(C(c2nnnn2CC2CCCO2)N2CCN(C(=O)c3ccco3)CC2)cc1 (stereo not given) | inconclusive: 5.22 µM [inhibitor, partial curve, poor fit] | 
CC1CCCCC12NC(=O)N(CC(=O)OCC(=O)N(C)C1CCCCC1)C2=O (stereo not given) | inactive | 
c1ccc(SCc2cc(-c3ccccc3)no2)cc1 | inactive | 
CCOCCc1nnc(NC(=O)C2CC(=O)N(c3ccc(OCC)cc3)C2)s1 (stereo not given) | inconclusive: 9.28 µM [inhibitor, partial curve, poor fit] | 
COc1cccc(CCc2nnc(CCC(=O)N3CCCC3c3nccs3)o2)c1 (stereo not given) | active: 5.86 µM | 
O=C1CCCCN1CC(=O)N1CCCC(Nc2ccc(F)cc2)C1 (stereo not given) | inactive | 
COc1ccc(Nc2nc(NCc3ccco3)nc(N3CCOCC3)n2)cc1 | inconclusive: 18.5 µM [inhibitor, single point] | 
CCCOc1ccc(NCC(=O)Nc2ccc(C)cc2C)cc1 | inconclusive: 11.7 µM [inhibitor, single point] | 
CC(OC(=O)c1ccccc1C(=O)N(C)c1ccccc1)C(=O)Nc1ccc(C(N)=O)cc1 (stereo not given) | inconclusive: 10.4 µM [inhibitor, single point] | 
Cc1cccc(C)c1NC(=O)NN1C(C)CCCC1C (stereo not given) | inconclusive: 18.5 µM [inhibitor, single point] | 
CC(=O)N1CCN(CC(=O)Nc2ccc(SC(F)F)cc2)CC1 | inconclusive: 9.28 µM [inhibitor, single point] | 
COc1ccc(CCNC(=O)/C(C#N)=C2\N=C(NC(=O)c3cccs3)c3ccccc32)cc1 | inconclusive: 14.7 µM [inhibitor, single point] | 
Cc1ccccc1Cn1c2ccccc2c2cnn(CC(=O)N3CCN(c4ccccc4)CC3)c(=O)c21 | inconclusive: 10.4 µM [inhibitor, single point] | 
Cc1ccc(C(CNC(=O)Nc2ccc(Cl)cc2)N2CCN(C)CC2)cc1 (stereo not given) | inconclusive: 2.94 µM [inhibitor, partial curve] | 

Part of the list above, as tab-separated lines:
SMILES	Potency	activity change, negative = inhibition
CSc1ccc(/C=N/NC(=O)c2ccc(C)c(C)c2)cc1	inactive	
CCN1C(=O)[C@H]2[C@@H](c3ccc(-c4ccccc4)cc3)N[C@@](CC(C)C)(C(=O)OC)[C@H]2C1=O	active: 9.28 µM	
Cc1cccc(CC2CC(=O)N(c3ccc([N+](=O)[O-])cc3)C2=O)c1 (stereo not given)	inconclusive: 1.85 µM [inhibitor, partial curve, poor fit]	
Cc1ccc(C(CNC(=O)Nc2ccc(Cl)cc2)N2CCN(C)CC2)cc1 (stereo not given)	inconclusive: 2.94 µM [inhibitor, partial curve]	

Additional compounds follow:

SMILES | Potency | activity change, negative = inhibition
Cc1ccc(-c2csc3ncnc(Nc4ccc(N5CCOCC5)cc4)c23)cc1 | inconclusive: 14.7 µM [inhibitor, partial curve, poor fit] | 
COc1cccc(S(=O)(=O)NCc2ccc(C(=O)N3CCN(Cc4ccccc4)CC3)cc2)c1 | inconclusive: 9.28 µM [inhibitor, partial curve, poor fit] | 
CCc1ccc(Nc2n[n+](-c3ccccc3)c(-c3ccc(OC)c(Br)c3)s2)cc1 | active: 4.65 µM | 
O=C(O)CSC(NC(=O)c1cccnc1)(C(F)(F)F)C(F)(F)F | inconclusive: 18.5 µM [inhibitor, single point] | 
CCOC(=O)c1c(C)[nH]c(C)c1C(=O)CSc1nnc(-c2ccco2)n1Cc1ccccc1 | active: 14.7 µM | 
CCC(C(=O)OCC(=O)Nc1c(Cl)cccc1Cl)c1ccccc1 (stereo not given) | inactive | 
Cc1ccccc1S(=O)(=O)Cc1ccc(C(=O)NC2CCCCC2C)o1 (stereo not given) | inconclusive: 2.62 µM [inhibitor, full curve] | 
CC(C)=N/N=C1\NC(=O)C(C)S1 (stereo not given) | active: 1.17 µM | 
CCOC(=O)[C@]1(C#N)[C@@H]2C=CC(C(C)=O)=CN2[C@@H](C(N)=O)[C@@H]1c1ccsc1 | inconclusive: 1.47 µM [inhibitor, partial curve, poor fit] | 
CC(C)N(C(=O)CN1CCN(S(=O)(=O)c2ccc(Br)s2)CC1)C(C)C | inconclusive: 16.5 µM [inhibitor, single point] | 
CCOC(=O)C1=C(C)N(C)C(C)=C(C(=O)OCC)C1c1ccc(Cl)cc1 | inconclusive: 9.28 µM [inhibitor, partial curve, poor fit] | 
Cc1ccc(/C=N/n2c(-c3cccnc3)n[nH]c2=S)s1 | inactive | 
Cc1cc(C)nc(N/C(=N\S(=O)(=O)Cc2ccccc2)Nc2cccc(Cl)c2C)n1 | inactive | 
CCOc1ccccc1NC(=O)CCNS(=O)(=O)c1ccccc1 | inconclusive: 18.5 µM [inhibitor, single point] | 
COc1cc(C(=O)N2CCN(C(=O)c3ccco3)CC2)c([N+](=O)[O-])cc1OC | inactive | 
COC1CCN(C(=O)c2ccc(OC3CCN(CCc4ccccc4)CC3)cc2)CC1 | inconclusive: 11.7 µM [inhibitor, single point] | 
CC(C)CN(C(=O)CN1CCN(c2ccc(O)cc2)CC1)c1c(N)n(CC(C)C)c(=O)[nH]c1=O | inconclusive: 18.5 µM [inhibitor, single point] | 
COc1ccc(CNCCC(c2ccc(OC(C)C)cc2)C(C)C)cc1OC (stereo not given) | inconclusive: 8.28 µM [inhibitor, partial curve] | 
Cc1c(NC(=O)CN2CCCC(C)C2)ccc2nsnc12 (stereo not given) | inconclusive: 1.65 µM [inhibitor, full curve, poor fit] | 
CC1CN(c2oc(-c3ccco3)nc2S(=O)(=O)c2ccccc2)CC(C)O1 (stereo not given) | inactive | 
c1ccc(N2CCN(c3nc4cc5c(cc4s3)OCCO5)CC2)cc1 | inconclusive: 10.4 µM [inhibitor, single point] | 
Cc1ccc(-n2nc(C)c3c(-c4cccs4)c(C#N)c(N)nc32)cc1 | inconclusive: 13.1 µM [inhibitor, partial curve, poor fit] | 

From PubChem BioAssay AID504834 (National Center for Advancing Translational Sciences (NCATS), 2011)
